The values below come from publication doi:10.1101/2025.11.03.686288.

Where two headings read alike, the source gives them in different places. These are yes or no findings as the source states them, for the method shown. Some entries that bind do so weakly or less than the wild type. Sequences can lack the tags named with a protein.

Test [1] addresses T1, GAL4 DNA-binding domain fused to ScPCS60 (S. cerevisiae) (UniProt P38137).
T1 sequence: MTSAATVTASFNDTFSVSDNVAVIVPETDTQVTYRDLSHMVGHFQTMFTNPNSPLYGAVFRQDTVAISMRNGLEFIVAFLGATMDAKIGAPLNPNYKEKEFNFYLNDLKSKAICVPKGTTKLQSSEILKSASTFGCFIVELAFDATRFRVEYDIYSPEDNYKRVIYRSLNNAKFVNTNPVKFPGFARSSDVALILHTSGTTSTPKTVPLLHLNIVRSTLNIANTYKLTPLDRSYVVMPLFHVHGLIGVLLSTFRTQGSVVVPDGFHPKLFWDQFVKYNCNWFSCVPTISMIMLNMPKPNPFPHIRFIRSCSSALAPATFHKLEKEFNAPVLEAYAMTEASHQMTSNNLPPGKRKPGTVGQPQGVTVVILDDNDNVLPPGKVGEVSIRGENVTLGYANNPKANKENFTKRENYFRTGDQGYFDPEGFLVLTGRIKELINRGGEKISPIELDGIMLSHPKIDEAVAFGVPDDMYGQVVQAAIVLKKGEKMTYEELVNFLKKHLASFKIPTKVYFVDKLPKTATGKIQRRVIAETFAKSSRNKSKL
Put plainly: two-hybrid.

Test [2] concerns the target T1, GAL4 DNA-binding domain fused to ScPCS60 (S. cerevisiae). Nature of the test: two-hybrid. This is another data set of the same source.

B1: GAL4 activation domain fused to ScPEX5 (protein, UniProt P35056 1-612)
chain: MDVGSCSVGNNPLAQLHKHTQQNKSLQFNQKNNGRLNESPLQGTNKPGISEAFISNVNAISQENMANMQRFINGEPLIDDKRRMEIGPSSGRLPPFSNVHSLQTSANPTQIKGVNDISHWSQEFQGSNSIQNRNADTGNSEKAWQRGSTTASSRFQYPNTMMNNYAYASMNSLSGSRLQSPAFMNQQQSGRSKEGVNEQEQQPWTDQFEKLEKEVSENLDINDEIEKEENVSEVEQNKPETVEKEEGVYGDQYQSDFQEVWDSIHKDAEEVLPSELVNDDLNLGEDYLKYLGGRVNGNIEYAFQSNNEYFNNPNAYKIGCLLMENGAKLSEAALAFEAAVKEKPDHVDAWLRLGLVQTQNEKELNGISALEECLKLDPKNLEAMKTLAISYINEGYDMSAFTMLDKWAETKYPEIWSRIKQQDDKFQKEKGFTHIDMNAHITKQFLQLANNLSTIDPEIQLCLGLLFYTKDDFDKTIDCFESALRVNPNDELMWNRLGASLANSNRSEEAIQAYHRALQLKPSFVRARYNLAVSSMNIGCFKEAAGYLLSVLSMHEVNTNNKKGDVGSLLNTYNDTVIETLKRVFIAMNRDDLLQEVKPGMDLKRFKGEFSF
For B1, the binding result in test [1] and in test [2] was “binds” each time.
